PubChem BioAssay AID1159593 – NIAID – 2016

Screen: 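Knock-downs that alter LPS-induced nuclear entry of p65 in mouse macrophages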
Cell system: RAW264.7 macrophages of mouse, with reporters for p65 (GFP) and the Tnf promoter (mCherry)
Reagents: single siRNA against mouse genes
Time to read-out: 48 to 72 hours after siRNA transfection, then LPS for 40 min
Challenge: LPS (Salmonella minnesota R595) for 40 min before fixation; dose not given
Measurement: 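Imaged nuclear over cytoplasmic GFP-p65 intensity after 40 min LPS, normalised per plate by median and MAD, robust z-score versus negative controls, mean of replicates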
Direction: p65 translocation z-score: higher = more nuclear NF-kappaB p65 after LPS
Call rule: 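Activity score grows with absolute z: 25 beyond 1, 50 beyond 1.5, 75 beyond 2, 100 beyond 2.5; active calls here sit at about z 1.5 or more either way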
Meaning of the calls: active = changed p65 translocation (either direction); inactive = no clear change
Shown is one part, drawn at random, of 756 reagents tested. 137 of them (18%) count as active. 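Active means p65 translocation went either up or down; genes were judged on the median of six siRNAs, not single siRNAs.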 Unmarked entries are inactive. Reagents against one gene are numbered here. Reagent sequences are not shown. Not given: the amount of reagent.

For Tlr2 (GeneID 24088) #1, how do the results read?
p65 translocation z-score: -0.553

For Tlr2 (GeneID 24088) #2, how do the results read?
p65 translocation z-score: -0.963

With Tlr2 (GeneID 24088) #3, what was measured?
p65 translocation z-score: 0.925

What did the screen give for Tlr2 (GeneID 24088) #4?
p65 translocation z-score: 0.41

Which result is listed for Tlr2 (GeneID 24088) #5?
p65 translocation z-score: 0.966

What is on record for Tlr2 (GeneID 24088) #6?
p65 translocation z-score: 0.258

How did the screen score Relb (GeneID 19698) #1?
p65 translocation z-score: -0.00994

For Relb (GeneID 19698) #2, what does the deposit list?
p65 translocation z-score: -0.437

With Relb (GeneID 19698) #3, how do the results read?
p65 translocation z-score: -2.41 (active)

What is on record for Relb (GeneID 19698) #4?
p65 translocation z-score: 0.272

Which result is listed for Relb (GeneID 19698) #5?
p65 translocation z-score: -1.16

With Relb (GeneID 19698) #6, what was measured?
p65 translocation z-score: -1.58 (active)

With Egr1 (GeneID 13653) #1, what was measured?
p65 translocation z-score: 0.356

With Egr1 (GeneID 13653) #2, how do the results read?
p65 translocation z-score: -1.54 (active)

What did the screen give for Egr1 (GeneID 13653) #3?
p65 translocation z-score: -1.18

For Egr1 (GeneID 13653) #4, how do the results read?
p65 translocation z-score: 0.0878

How did the screen score Egr1 (GeneID 13653) #5?
p65 translocation z-score: 0.164

How did the screen score Egr1 (GeneID 13653) #6?
p65 translocation z-score: -0.257

Which result is listed for Traf3 (GeneID 22031) #1?
p65 translocation z-score: 0.296

What did the screen give for Traf3 (GeneID 22031) #2?
p65 translocation z-score: -0.0827

How did the screen score Traf3 (GeneID 22031) #3?
p65 translocation z-score: 0.252

For Traf3 (GeneID 22031) #4, how do the results read?
p65 translocation z-score: 0.0278

How did the screen score Traf3 (GeneID 22031) #5?
p65 translocation z-score: 2.08 (active)

What did the screen give for Traf3 (GeneID 22031) #6?
p65 translocation z-score: 0.782
